This is an account of results in paper doi:10.1101/2023.05.13.539637.

Assay [1] addresses GST-RIP1(27-439), N-terminal fragment of RIP140 (Receptor Interacting Protein of 140 kDa) fused with GST (UniProt P48552). Put plainly: pull-down.
Assay [2] deals with T1, RIP140 (Receptor Interacting Protein of 140 kDa), endogenous (human (endogenous in SW620 and HT29)) (UniProt P48552).
T1 sequence: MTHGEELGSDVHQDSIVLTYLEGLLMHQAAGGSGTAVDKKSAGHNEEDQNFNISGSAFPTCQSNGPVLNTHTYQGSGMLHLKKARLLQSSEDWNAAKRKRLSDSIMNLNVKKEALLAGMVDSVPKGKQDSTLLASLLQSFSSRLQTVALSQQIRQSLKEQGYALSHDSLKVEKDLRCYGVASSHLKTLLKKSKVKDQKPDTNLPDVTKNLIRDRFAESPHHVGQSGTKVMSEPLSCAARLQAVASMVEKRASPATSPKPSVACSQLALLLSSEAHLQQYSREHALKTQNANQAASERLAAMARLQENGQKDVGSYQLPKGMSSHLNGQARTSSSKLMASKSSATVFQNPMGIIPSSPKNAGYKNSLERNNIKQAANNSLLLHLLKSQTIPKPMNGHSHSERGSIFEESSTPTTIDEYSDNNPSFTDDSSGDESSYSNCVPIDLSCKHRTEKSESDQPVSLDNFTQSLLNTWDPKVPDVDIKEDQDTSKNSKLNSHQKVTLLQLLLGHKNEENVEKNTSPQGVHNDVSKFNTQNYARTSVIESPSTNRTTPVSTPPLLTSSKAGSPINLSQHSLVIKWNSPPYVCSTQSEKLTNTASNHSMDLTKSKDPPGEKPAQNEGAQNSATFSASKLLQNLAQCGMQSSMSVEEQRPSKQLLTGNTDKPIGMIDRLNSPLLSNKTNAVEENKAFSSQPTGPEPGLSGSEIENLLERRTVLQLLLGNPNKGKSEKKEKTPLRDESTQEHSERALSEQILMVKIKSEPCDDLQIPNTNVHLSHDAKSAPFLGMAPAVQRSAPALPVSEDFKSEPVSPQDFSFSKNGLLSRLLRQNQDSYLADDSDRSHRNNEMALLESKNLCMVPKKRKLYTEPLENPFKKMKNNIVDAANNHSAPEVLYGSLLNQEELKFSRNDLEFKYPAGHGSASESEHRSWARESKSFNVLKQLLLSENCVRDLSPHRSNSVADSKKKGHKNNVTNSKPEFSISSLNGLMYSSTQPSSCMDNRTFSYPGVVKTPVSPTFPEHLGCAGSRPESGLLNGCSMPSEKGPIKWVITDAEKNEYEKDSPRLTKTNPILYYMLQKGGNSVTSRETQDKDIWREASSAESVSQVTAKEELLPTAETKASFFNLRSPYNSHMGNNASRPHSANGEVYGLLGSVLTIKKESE
The experiment in a line: proximity ligation.

No constants are given. Whether binding was seen depends on the method and setting. In cells and extracts the contact can be indirect. Some entries that bind do so weakly or less than the wild type.

B1: in vitro translated HES1 protein (protein, UniProt Q14469 1-280)
chain: MPADIMEKNSSSPVAATPASVNTTPDKPKTASEHRKSSKPIMEKRRRARINESLSQLKTLILDALKKDSSRHSKLEKADILEMTVKHLRNLQRAQMTAALSTDPSVLGKYRAGFSECMNEVTRFLSTCEGVNTEVRTRLLGHLANCMTQINAMTYPGQPHPALQAPPPPPPGPGGPQHAPFAPPPPLVPIPGGAAPPPGGAPCKLGSQAGEAAKVFGGFQVVPAPDGQFAFLIPNGAFAHSGPVIPVYTSNSGTSVGPNAVSPSSGPSLTADSMWRPWRN
For B1, the binding result in assay [1] is recorded as “binds”.

B2: HES1, endogenous (protein, UniProt Q14469 1-280)
chain: MPADIMEKNSSSPVAATPASVNTTPDKPKTASEHRKSSKPIMEKRRRARINESLSQLKTLILDALKKDSSRHSKLEKADILEMTVKHLRNLQRAQMTAALSTDPSVLGKYRAGFSECMNEVTRFLSTCEGVNTEVRTRLLGHLANCMTQINAMTYPGQPHPALQAPPPPPPGPGGPQHAPFAPPPPLVPIPGGAAPPPGGAPCKLGSQAGEAAKVFGGFQVVPAPDGQFAFLIPNGAFAHSGPVIPVYTSNSGTSVGPNAVSPSSGPSLTADSMWRPWRN
As to B2, the binding result in assay [2] was “binds”.
